Some results were stated once for a whole list of compounds, not compound by compound.
Tests used:
MDA-MB-231 cells = assay: Viability (Dye-exclusion assay) of siRNA-transfected MDA-MB-231 cells treated with cisplatin (CDDP), FIG. 1; assay type: cell-based, human; details: siControl group designated as 100, siRNA 10 nM, 48 hours, then CDDP 0-50 μM for 24 hours
MIA-PaCa-2 cells = assay: Viability (Dye-exclusion assay) of siRNA-transfected MIA-PaCa-2 cells treated with cisplatin (CDDP), FIG. 1; assay type: cell-based, human; details: siControl group designated as 100, siRNA 10 nM, 48 hours, then CDDP 0-50 μM for 24 hours

Substance	concentration relative value of chemotherapeutic agent required to induce a viability of cancer cells of 50% (MDA-MB-231 cells)	concentration relative value of chemotherapeutic agent required to induce a viability of cancer cells of 50% (MIA-PaCa-2 cells)
siHSP47-A: siRNA against HSP47, sense 5′-CUACGACGACGAGAAGGAAtt-3′ (SEQ ID NO:2), antisense 5′-UUCCUUCUCGUCGUCGUAGta-3′ (SEQ ID NO:3) (Ambion) (sense CUACGACGACGAGAAGGAATT; antisense UUCCUUCUCGUCGUCGUAGTA; chemistry not given here; listed as Homo sapiens)	less than 50	less than 50
siHSP47-B: siRNA against HSP47, sense 5′-AGCCCUCUUCUGACACUAAtt-3′ (SEQ ID NO:4), antisense 5′-UUAGUGUCAGAAGAGGGCUgg-3′ (SEQ ID NO:5) (Ambion) (sense AGCCCUCUUCUGACACUAATT; antisense UUAGUGUCAGAAGAGGGCUGG; chemistry not given here; listed as Homo sapiens)	less than 50	less than 50
siHSP47-C: siRNA against HSP47, sense 5′-GGACAGGCCUCUACAACUAtt-3′ (SEQ ID NO:6), antisense 5′-UAGUUGUAGAGGCCUGUCCtt-3′ (SEQ ID NO:7) (created by Nitto Denko Corporation) (sense GGACAGGCCUCUACAACUATT; antisense UAGUUGUAGAGGCCUGUCCTT; chemistry not given here; listed as Homo sapiens)	less than 50	less than 50
